{"source": "PubChem BioAssay AID720505 (Drosophila RNAi Screening Center, 2013)", "screen": "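Fly regulators or components of the CRAC channel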 (primary screen)", "cells": "Drosophila S2R+ cells", "knock-down reagent": "long dsRNA against Drosophila genes", "challenge": "thapsigargin (2 µM) in calcium-free buffer to empty internal stores, then 2 mM calcium added back", "measurement": "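Stores emptied by 2 µM thapsigargin without calcium, then 2 mM calcium re-added; fluo-4 fluorescence followed by FLIPR in 384-well plates, per-well averaged endpoint, raw; two screen passes, some wells retested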", "reading the numbers": "calcium signal: higher = more calcium entry after store depletion", "rule for the call": "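Knock-downs counted as hits when calcium entry dropped relative to STIM1 positive and Rho1 negative controls present on each plate; roughly 1500 genes called, with reductions of differing size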", "calls": "active = called as lowering calcium entry; inactive = not called", "note": "The deposit covers about 20,000 reagents; below is an unselected part of those that have a named target and a result. In the full data, about 2,100 (10%) got an active call. 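Raw plate signals without normalisation; calls rest on control-based scores that were not deposited; replicate 2 separates called from uncalled poorly.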 A number with no mark means an inactive call. The numbers tell different reagents against one gene apart. No sequences are given here. Not stated in the record: the amount of reagent, the time to read-out."}
{"gene knocked down": "tun (tungus)", "reagent": 1, "calcium signal, replicate 1": 103, "calcium signal, replicate 2": 97.1}
{"gene knocked down": "tun (tungus)", "reagent": 2, "calcium signal, replicate 1": 116, "calcium signal, replicate 2": 93.9}
{"gene knocked down": "CG11655", "reagent": 1, "calcium signal, replicate 1": 77.1, "calcium signal, replicate 2": 129}
{"gene knocked down": "Adgf-A (Adenosine deaminase-related growth factor A)", "reagent": 1, "calcium signal, replicate 1": 130, "calcium signal, replicate 2": 76.5}
{"gene knocked down": "CG34126", "reagent": 1, "calcium signal, replicate 1": 170, "calcium signal, replicate 2": 90.9}
{"gene knocked down": "CG34126", "reagent": 2, "calcium signal, replicate 1": 98.8, "calcium signal, replicate 2": 229}
{"gene knocked down": "alpha-PheRS (Phenylalanyl-tRNA synthetase, alpha-subunit)", "reagent": 1, "calcium signal, replicate 1": "121 (active)", "calcium signal, replicate 2": 59.6}
{"gene knocked down": "CG11865", "reagent": 1, "calcium signal, replicate 1": 96.4, "calcium signal, replicate 2": 107}
{"gene knocked down": "Trpgamma (Transient receptor potential cation channel gamma)", "reagent": 1, "calcium signal, replicate 1": 114, "calcium signal, replicate 2": 103}
{"gene knocked down": "wg (wingless)", "reagent": 1, "calcium signal, replicate 1": 145, "calcium signal, replicate 2": 94.2}
{"gene knocked down": "CG9903", "reagent": 1, "calcium signal, replicate 1": 82.1, "calcium signal, replicate 2": 128}
{"gene knocked down": "CG8028", "reagent": 1, "calcium signal, replicate 1": 198, "calcium signal, replicate 2": 94.9}
